Hit rate of the full screen: of about 300,000 compounds, about 3,700 (1.2%) were called active. Inconclusive results, whose numbers are uncertain, are shown with a selection of clear calls. Calls come from the whole dose curve; tested in HEK293 cells. Where the call is inconclusive, the potency comes from a doubtful curve fit.
Test: qHTS for Inhibitors of binding or entry into cells for Lassa Virus; note: nearly all actives have a fitted effect of over 50% in size
Settings: Lassa virus pseudotype entry inhibition, cell reporter; activity change, negative = inhibition: at 37.9 µM (top of the series) unless noted
% is set by controls: 0 for no effect and ±100 for the full control effect; potency is the fitted concentration of half-maximal effect.

With `OCCC1CN(Cc2cccc(C(F)(F)F)c2)CCN1Cc1ccccc1` (stereo not given) as the compound, how does the Potency read?
The Potency was inconclusive: 3.55 µM [inhibitor, partial curve].

For `CCN(CC(=O)Nc1ccc(NC(C)=O)cc1)C(=O)COc1ccc2ccccc2c1`, which Potency is on record?
The Potency was inconclusive: 20 µM [activator, single point].

With `COc1ccccc1N1CCN(c2ccc(=O)n(CC(=O)O)n2)CC1` as the compound, how does the “activity change, negative = inhibition” value read?
Its value is inactive: 21.8% [at 46.1 µM].

With `O=C(N/N=C/c1cccc([N+](=O)[O-])c1)c1cnccn1` as the compound, how does the Potency read?
Its Potency is inconclusive: 3.55 µM [activator, partial curve].

Which Potency does the source give for `Cc1ccc2c(c1)cc(C(=O)NCc1ccc(F)cc1)n2C` here?
The Potency was active: 2 µM.

For `COc1ccc(/C=C2/N=C3CCCCCN3C2=O)cc1OC`, which “activity change, negative = inhibition” value is on record?
Its value is inactive: 5.6%.

With `CN(CC(=O)Nc1ccc(S(=O)(=O)N2CCCC2)cc1)Cc1c(F)cccc1Cl` as the compound, how does the Potency read?
The Potency was inconclusive: 22.4 µM [inhibitor, single point].

For `CCN(CC)S(=O)(=O)c1ccc2nc(NC(=O)c3ccccc3OC)sc2c1`, which Potency is on record?
The Potency was inconclusive: 5.62 µM [inhibitor, single point].

With `CCOc1cc2[nH]c(=O)n(Cc3cccc(OC)c3)c(=O)c2cc1OCC` as the compound, how does the Potency read?
The Potency was inconclusive: 18.3 µM [inhibitor, partial curve, poor fit].

Which “activity change, negative = inhibition” value does the source give for `Cc1ccc(OCCSCc2nc3ccccc3[nH]2)cc1` here?
The value was inactive: -0.256%.

For `O=C(CCN1C(=O)C2C3CC(C(Br)C3Br)C2C1=O)OCC(=O)c1ccccc1` (stereo not given), which Potency is on record?
Its Potency is inconclusive: 22.4 µM [activator, partial curve, poor fit].

With `COc1cc2c(cc1OC)C(c1ccc(F)cc1)N(c1ccccc1)C(=O)C2` (stereo not given) as the compound, how does the “activity change, negative = inhibition” value read?
Its value is inactive: -4.67% [at 46.1 µM].

For `COc1cccc(N(C(=O)c2snc(C(N)=O)c2N)C(C(=O)NCc2ccccc2)c2ccc(O)cc2)c1` (stereo not given), which Potency is on record?
Its Potency is inconclusive: 0.891 µM [inhibitor, full curve].

With `CCc1nc(N)nc(N)c1-c1ccc(Cl)c(N=[N+]=[N-])c1` as the compound, how does the Potency read?
Its Potency is inconclusive: 3.55 µM [inhibitor, full curve].

With `Cc1cccc(N=C2NN=C(c3ccc4c(c3)OCCO4)CS2)c1` as the compound, how does the Potency read?
The Potency was inconclusive: 9.2 µM [inhibitor, partial curve].

For `Cc1ccccc1NC(=O)c1c(C)oc2ccc(O)c(CN3CCCC(C)C3)c12` (stereo not given), which Potency is on record?
The Potency was inconclusive: 35.5 µM [inhibitor, single point].

Which Potency does the source give for `COC(=O)c1cnn(-c2ccc(Cl)cc2)c1/C=N/NC(N)=S` here?
The Potency was inconclusive: 10 µM [inhibitor, partial curve, poor fit].

For `CCOC(=O)c1c(C)[nH]c(C(=O)NNC(=O)c2ccccc2)c1C`, which Potency is on record?
The Potency was inconclusive: 20.6 µM [inhibitor, single point].

For `CCOc1ccc(NC(=O)CN(C)C(=O)c2ccc(N3CCCCC3)c([N+](=O)[O-])c2)cc1OCC`, which Potency is on record?
Its Potency is inconclusive: 1.26 µM [inhibitor, partial curve, poor fit].

With `COc1ccccc1Nc1nn2c(=O)c3ccc(C(=O)NC4CCC(C)CC4)cc3nc2s1` (stereo not given) as the compound, how does the “activity change, negative = inhibition” value read?
The value was inactive: 19.6% [at 46.1 µM].

With `CCC(C)N=C1Sc2nc3ccc(C)cc3cc2CN1CCOC` (stereo not given) as the compound, how does the “activity change, negative = inhibition” value read?
The value was inactive: 10.9%.

Which Potency does the source give for `O=C(C1CCN(S(=O)(=O)c2ccc(Br)s2)CC1)N1CCN(c2ccc(F)cc2)CC1` here?
The Potency was inconclusive: 1.12 µM [inhibitor, full curve, poor fit].

With `COc1ccc(-c2nnc(OCc3ccccc3)c3ccccc23)cc1` as the compound, how does the Potency read?
Its Potency is inconclusive: 5.01 µM [inhibitor, partial curve, poor fit].

For `CCCCc1c(C)nn(-c2nnc3c4ccccc4n(CC)c3n2)c1C`, which Potency is on record?
The Potency was inconclusive: 32.6 µM [inhibitor, single point].

For `O=C(c1cc(-c2ccccc2)nc2ccccc12)N1CCOCC1`, which “activity change, negative = inhibition” value is on record?
The value was inactive: 3.48%.

Which Potency does the source give for `CN(C)CCn1c2ccccc2c2nc3ccc([N+](=O)[O-])cc3cc21` here?
Its Potency is inconclusive: 2.82 µM [inhibitor, full curve].

For `CCOC(=O)c1ccc(NC(=S)Nc2ccccn2)cc1`, which Potency is on record?
Its Potency is inconclusive: 6.31 µM [activator, single point].

For `O=c1[nH]c(/C=C/c2ccccc2OC(F)F)nc2c1cnn2-c1ccccc1`, which Potency is on record?
Its Potency is inconclusive: 10 µM [inhibitor, partial curve].

With `O=c1[nH]nc(SCc2ccccc2)n1C1CC2C=CC1C2` (stereo not given) as the compound, how does the Potency read?
Its Potency is inconclusive: 14.1 µM [inhibitor, partial curve, poor fit].

With `CC(=O)CSc1nc2cc3c(cc2cc1C#N)OCCO3` as the compound, how does the Potency read?
The Potency was inconclusive: 2 µM [inhibitor, full curve, poor fit].

With `CCc1nc(N)nc(N)c1-c1ccc(Cl)cc1` as the compound, how does the Potency read?
Its Potency is active: 3.26 µM.

Which “activity change, negative = inhibition” value does the source give for `O=C(NN=C1CCCC1)c1n[nH]c2c1CCCC2` here?
Its value is inactive: -4.33%.

Which “activity change, negative = inhibition” value does the source give for `Cc1ccc(NC(=O)/C(CN(C)C)=N\O)cc1` here?
Its value is inactive: 21.9%.

With `O=C1c2ccccc2C2=Nc3ccccc3SC(c3cccc(F)c3)C12` (stereo not given) as the compound, how does the Potency read?
Its Potency is inconclusive: 25.9 µM [inhibitor, partial curve, poor fit].

For `CCOC(=O)c1ccc(NC(=O)c2nn(C)cc2Br)cc1`, which “activity change, negative = inhibition” value is on record?
The value was inactive: -3.8%.

Which “activity change, negative = inhibition” value does the source give for `O=C1Cc2cc(NS(=O)(=O)c3ccc([N+](=O)[O-])cc3)cc3c2N1CCC3` here?
The value was inactive: 6.23%.

With `CCN(C(=O)CSc1nc(-c2ccccc2)no1)c1cccc(C)c1` as the compound, how does the “activity change, negative = inhibition” value read?
The value was inactive: -0.417% [at 46.1 µM].

With `CC(=O)c1cc2c(cc1NS(=O)(=O)c1ccc(C)cc1)OCCO2` as the compound, how does the Potency read?
Its Potency is inconclusive: 11.2 µM [inhibitor, partial curve, poor fit].

For `O=C(c1cccc(F)c1)N1CCN(C(=O)C2CC2)CC1`, which “activity change, negative = inhibition” value is on record?
The value was inactive: 0.711%.

With `CCn1c(-c2nonc2N)nc2ccc(F)cc21` as the compound, how does the Potency read?
Its Potency is inconclusive: 6.28 µM [activator, partial curve, poor fit].

For `COc1cccc(C2CC(=O)Nc3c2c(=O)[nH]c2ncnn32)c1OC` (stereo not given), which “activity change, negative = inhibition” value is on record?
Its value is inactive: -5.27% [at 46.1 µM].

With `COc1ccc(C(=O)OCC(=O)N2CCN(C(=O)c3ccco3)CC2)cc1OC` as the compound, how does the Potency read?
Its Potency is inconclusive: 3.98 µM [inhibitor, single point].

For `Cc1ccc(NC(=O)C(=O)c2cn(CC(=O)N3CCCCC3)c3ccccc23)cc1`, which Potency is on record?
Its Potency is inconclusive: 1.26 µM [activator, single point].

For `Cc1cc(C)c2nc(N(CCCN(C)C)C(=O)c3ccc4c(c3)CCCC4)sc2c1`, which Potency is on record?
The Potency was active: 11.2 µM.

For `COc1ccc(NS(=O)(=O)c2cccc(C(=O)NC3CCN(Cc4ccccc4)CC3)c2)cc1`, which Potency is on record?
Its Potency is inconclusive: 5.01 µM [inhibitor, full curve, poor fit].

— PubChem BioAssay AID540256 (National Center for Advancing Translational Sciences (NCATS), 2011)
